Measured values published in paper PMC11633487.
No constants are given. Whether binding was seen depends on the method and setting. In cells and extracts the contact can be indirect.

Amino acid sequences for entries named in this document (tags omitted). A change or cut given only in a name is not applied to a line headed by its entry.
UniProt Q9UMS4: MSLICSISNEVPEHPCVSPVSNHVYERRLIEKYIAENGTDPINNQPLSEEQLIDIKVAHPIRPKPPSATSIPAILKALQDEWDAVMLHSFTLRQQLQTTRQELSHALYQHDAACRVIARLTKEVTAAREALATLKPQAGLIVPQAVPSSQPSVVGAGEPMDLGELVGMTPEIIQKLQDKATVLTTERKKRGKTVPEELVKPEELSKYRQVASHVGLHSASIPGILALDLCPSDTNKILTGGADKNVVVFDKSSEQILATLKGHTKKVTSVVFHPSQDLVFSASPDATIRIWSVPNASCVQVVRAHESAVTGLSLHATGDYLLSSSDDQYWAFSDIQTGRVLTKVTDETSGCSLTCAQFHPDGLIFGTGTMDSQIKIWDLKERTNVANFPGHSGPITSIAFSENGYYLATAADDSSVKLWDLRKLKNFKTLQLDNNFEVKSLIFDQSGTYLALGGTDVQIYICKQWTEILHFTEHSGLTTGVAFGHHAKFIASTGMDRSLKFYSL
UniProt P17844: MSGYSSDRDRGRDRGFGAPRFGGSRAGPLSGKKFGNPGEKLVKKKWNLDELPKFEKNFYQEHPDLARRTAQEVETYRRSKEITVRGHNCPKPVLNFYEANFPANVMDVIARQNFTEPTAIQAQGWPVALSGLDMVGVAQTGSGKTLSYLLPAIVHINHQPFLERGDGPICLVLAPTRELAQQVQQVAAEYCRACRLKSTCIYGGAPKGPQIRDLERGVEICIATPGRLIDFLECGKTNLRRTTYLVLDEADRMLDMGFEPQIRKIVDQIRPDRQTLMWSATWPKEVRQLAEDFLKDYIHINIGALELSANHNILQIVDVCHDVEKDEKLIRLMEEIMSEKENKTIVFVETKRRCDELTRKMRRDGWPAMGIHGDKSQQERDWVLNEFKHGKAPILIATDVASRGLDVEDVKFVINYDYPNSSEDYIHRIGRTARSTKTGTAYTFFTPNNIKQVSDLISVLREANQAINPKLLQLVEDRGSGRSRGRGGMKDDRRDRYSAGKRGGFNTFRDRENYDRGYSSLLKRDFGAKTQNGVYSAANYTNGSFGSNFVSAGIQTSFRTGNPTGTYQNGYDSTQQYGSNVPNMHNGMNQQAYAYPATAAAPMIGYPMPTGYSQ

Target: PRP19-Myc with N-terminal U-box domain mutation (UniProt Q9UMS4)
Experiment: co-IP; HEK293T cells transfected with PRP19-Myc plasmids (domain mutations) for 48 h; lysates precipitated with anti-DDX5 and with anti-Myc antibodies, western blot

binding: no binding
Substance: DDX5 in HEK293T cells (from UniProt P17844 1-614)
